Source: the supplement of paper PMC10849652
The other results are listed elsewhere or left out.

Protein sequences, listed by entry. Tags and fused reporters are not part of them. Lines headed by an entry give the natural chain unless they say otherwise; changes in a name come on top.
UniProt Q9P2J5: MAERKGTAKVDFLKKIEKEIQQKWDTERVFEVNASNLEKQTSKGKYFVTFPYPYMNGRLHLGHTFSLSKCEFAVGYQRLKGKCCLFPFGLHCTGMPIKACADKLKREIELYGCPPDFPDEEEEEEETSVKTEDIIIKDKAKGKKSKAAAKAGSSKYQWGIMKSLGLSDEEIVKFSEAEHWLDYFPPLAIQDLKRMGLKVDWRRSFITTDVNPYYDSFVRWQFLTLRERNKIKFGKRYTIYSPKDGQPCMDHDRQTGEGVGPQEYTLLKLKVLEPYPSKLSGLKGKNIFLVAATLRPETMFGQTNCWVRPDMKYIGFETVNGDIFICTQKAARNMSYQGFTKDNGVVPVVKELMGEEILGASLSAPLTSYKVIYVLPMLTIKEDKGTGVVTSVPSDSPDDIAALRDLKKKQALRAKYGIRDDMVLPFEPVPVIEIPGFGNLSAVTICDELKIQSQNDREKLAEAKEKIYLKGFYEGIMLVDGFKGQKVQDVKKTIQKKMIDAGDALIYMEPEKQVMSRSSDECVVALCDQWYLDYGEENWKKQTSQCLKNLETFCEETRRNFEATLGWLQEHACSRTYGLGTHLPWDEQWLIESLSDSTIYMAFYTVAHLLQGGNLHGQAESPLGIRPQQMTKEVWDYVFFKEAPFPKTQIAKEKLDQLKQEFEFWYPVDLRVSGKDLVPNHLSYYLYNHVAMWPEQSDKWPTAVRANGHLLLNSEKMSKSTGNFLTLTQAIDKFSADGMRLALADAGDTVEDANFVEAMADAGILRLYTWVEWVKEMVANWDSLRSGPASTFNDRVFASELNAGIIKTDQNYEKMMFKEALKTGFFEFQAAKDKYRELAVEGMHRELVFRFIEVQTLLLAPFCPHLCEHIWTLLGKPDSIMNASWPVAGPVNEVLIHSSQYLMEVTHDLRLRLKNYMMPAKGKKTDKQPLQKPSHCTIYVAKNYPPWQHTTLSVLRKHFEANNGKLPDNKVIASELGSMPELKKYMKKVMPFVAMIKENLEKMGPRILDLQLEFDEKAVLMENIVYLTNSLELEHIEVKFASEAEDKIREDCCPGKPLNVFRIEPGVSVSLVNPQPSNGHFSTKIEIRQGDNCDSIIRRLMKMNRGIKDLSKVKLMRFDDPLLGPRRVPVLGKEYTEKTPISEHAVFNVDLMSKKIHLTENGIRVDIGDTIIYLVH
UniProt Q6IAA8, whole entry, looked up: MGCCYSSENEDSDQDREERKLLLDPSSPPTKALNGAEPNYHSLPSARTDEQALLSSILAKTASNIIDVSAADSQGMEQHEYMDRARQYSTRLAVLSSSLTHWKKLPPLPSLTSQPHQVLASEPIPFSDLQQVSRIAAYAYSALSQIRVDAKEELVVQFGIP
UniProt O43813, whole entry, looked up: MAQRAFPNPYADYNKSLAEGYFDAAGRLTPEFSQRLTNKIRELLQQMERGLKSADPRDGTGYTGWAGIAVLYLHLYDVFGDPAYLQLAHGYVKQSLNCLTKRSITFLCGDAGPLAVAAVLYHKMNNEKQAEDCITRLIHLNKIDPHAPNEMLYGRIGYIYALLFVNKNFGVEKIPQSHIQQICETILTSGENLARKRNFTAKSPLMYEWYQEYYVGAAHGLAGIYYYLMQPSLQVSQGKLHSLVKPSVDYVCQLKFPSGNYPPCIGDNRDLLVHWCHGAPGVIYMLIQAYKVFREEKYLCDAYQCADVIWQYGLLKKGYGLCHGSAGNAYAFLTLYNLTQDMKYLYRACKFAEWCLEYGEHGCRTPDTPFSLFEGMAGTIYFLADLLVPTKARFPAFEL
UniProt Q9BRT6: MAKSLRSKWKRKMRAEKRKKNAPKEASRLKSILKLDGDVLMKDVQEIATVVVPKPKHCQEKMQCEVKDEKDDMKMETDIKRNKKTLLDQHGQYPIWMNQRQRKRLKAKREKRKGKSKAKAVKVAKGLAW
UniProt Q9UIC8: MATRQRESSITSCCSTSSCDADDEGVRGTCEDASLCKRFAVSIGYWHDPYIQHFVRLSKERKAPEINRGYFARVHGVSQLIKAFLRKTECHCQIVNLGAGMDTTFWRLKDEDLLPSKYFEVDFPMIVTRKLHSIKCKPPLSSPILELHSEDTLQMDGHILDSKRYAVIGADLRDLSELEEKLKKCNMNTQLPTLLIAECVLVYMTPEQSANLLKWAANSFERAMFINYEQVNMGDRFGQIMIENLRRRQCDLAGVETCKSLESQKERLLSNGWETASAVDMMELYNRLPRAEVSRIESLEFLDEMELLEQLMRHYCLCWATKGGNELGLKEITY
UniProt O95202: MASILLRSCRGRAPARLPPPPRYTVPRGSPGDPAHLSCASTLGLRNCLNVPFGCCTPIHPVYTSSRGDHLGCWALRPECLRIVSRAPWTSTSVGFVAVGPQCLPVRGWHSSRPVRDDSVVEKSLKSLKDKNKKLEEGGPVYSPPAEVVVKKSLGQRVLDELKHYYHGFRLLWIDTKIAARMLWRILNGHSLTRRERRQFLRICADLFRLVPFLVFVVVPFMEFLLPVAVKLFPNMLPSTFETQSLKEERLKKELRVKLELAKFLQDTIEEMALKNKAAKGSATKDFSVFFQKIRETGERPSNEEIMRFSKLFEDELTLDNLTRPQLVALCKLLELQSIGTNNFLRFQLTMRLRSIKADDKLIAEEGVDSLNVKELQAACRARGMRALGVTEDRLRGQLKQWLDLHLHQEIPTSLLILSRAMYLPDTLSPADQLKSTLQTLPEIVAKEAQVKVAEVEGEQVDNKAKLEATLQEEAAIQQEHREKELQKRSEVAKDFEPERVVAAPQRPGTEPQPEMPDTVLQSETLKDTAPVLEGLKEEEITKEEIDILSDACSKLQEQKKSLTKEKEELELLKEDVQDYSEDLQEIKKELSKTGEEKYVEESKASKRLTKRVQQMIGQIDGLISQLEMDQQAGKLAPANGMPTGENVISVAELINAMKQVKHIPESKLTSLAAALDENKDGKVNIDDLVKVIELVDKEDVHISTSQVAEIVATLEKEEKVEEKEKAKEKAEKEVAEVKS
UniProt Q9H0V9: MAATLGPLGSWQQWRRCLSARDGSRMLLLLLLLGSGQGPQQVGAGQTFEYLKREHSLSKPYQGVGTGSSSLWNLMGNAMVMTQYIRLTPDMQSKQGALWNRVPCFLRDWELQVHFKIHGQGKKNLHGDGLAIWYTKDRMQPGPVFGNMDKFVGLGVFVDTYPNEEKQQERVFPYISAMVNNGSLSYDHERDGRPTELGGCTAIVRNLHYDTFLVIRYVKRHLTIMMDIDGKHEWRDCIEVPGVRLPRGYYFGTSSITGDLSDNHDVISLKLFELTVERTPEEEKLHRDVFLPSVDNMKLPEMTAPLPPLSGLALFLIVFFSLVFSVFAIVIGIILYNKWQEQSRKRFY
UniProt Q8TCA0: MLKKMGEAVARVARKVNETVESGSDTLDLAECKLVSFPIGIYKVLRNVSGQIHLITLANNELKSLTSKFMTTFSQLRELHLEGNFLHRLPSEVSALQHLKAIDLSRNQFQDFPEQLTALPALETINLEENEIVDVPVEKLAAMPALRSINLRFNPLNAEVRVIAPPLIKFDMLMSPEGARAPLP
UniProt Q6UWP7: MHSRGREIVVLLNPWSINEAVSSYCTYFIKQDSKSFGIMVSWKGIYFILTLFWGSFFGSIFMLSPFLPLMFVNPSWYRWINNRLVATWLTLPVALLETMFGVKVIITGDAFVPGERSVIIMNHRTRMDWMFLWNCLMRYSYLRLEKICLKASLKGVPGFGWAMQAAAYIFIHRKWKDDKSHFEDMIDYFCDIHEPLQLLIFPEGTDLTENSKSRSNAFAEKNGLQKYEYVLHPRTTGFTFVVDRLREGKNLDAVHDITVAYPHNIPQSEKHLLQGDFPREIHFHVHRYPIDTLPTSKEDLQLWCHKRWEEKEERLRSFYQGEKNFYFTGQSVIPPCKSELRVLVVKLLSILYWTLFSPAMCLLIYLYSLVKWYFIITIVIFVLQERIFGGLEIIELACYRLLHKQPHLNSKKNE
UniProt Q9Y2Q5, whole entry, looked up: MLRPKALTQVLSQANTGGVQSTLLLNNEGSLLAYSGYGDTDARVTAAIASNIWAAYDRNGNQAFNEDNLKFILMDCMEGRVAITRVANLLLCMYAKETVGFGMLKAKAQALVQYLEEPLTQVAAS
UniProt Q6ZN17: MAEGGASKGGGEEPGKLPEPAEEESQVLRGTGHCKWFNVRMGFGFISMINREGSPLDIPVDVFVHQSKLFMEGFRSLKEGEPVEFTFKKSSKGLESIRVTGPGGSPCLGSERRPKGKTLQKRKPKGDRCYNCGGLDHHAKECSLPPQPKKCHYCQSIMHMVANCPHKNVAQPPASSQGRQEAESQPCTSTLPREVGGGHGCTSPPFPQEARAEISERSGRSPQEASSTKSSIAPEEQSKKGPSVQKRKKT
UniProt Q9NS86: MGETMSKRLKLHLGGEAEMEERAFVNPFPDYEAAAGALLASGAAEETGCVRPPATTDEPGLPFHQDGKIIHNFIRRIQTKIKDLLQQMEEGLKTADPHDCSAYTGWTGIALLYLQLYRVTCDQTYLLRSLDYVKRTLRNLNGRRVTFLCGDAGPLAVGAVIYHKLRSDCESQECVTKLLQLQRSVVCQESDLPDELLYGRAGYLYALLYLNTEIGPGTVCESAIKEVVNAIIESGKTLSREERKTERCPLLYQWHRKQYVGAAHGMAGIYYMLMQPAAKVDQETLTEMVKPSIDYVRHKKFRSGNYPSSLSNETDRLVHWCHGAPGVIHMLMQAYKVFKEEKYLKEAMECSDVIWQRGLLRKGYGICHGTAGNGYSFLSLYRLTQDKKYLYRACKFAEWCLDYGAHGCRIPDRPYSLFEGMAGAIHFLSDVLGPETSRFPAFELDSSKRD
UniProt P13796: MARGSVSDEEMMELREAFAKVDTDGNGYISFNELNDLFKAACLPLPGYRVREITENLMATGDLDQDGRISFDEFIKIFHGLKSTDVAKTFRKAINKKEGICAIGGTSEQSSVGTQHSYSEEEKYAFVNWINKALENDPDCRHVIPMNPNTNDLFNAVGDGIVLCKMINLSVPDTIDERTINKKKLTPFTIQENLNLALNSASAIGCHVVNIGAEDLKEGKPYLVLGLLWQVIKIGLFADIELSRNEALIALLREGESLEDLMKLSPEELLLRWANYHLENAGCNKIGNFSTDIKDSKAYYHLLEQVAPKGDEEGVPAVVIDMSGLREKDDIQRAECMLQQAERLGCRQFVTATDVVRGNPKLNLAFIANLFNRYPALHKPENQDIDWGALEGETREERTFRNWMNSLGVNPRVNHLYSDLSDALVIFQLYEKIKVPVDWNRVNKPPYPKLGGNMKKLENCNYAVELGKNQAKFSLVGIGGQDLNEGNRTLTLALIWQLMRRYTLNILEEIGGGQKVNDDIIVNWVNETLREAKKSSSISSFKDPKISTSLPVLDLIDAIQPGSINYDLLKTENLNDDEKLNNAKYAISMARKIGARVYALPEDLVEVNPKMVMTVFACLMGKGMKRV
UniProt P53671: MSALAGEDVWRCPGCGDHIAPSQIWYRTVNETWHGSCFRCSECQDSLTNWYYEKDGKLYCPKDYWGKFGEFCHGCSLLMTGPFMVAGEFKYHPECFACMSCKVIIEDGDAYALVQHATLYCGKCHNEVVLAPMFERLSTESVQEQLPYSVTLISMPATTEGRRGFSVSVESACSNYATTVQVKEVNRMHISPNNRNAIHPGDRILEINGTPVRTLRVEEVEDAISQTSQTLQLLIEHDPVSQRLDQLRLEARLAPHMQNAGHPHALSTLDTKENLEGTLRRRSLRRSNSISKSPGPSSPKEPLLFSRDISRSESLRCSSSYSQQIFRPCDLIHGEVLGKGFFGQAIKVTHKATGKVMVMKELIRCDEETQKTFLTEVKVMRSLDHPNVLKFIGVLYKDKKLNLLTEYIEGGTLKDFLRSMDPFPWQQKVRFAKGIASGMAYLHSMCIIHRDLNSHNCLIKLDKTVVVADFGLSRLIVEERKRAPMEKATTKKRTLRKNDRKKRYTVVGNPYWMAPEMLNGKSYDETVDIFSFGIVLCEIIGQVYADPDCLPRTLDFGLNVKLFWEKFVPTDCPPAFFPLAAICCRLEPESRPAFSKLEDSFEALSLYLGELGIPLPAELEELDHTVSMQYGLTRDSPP
UniProt Q9H9A6: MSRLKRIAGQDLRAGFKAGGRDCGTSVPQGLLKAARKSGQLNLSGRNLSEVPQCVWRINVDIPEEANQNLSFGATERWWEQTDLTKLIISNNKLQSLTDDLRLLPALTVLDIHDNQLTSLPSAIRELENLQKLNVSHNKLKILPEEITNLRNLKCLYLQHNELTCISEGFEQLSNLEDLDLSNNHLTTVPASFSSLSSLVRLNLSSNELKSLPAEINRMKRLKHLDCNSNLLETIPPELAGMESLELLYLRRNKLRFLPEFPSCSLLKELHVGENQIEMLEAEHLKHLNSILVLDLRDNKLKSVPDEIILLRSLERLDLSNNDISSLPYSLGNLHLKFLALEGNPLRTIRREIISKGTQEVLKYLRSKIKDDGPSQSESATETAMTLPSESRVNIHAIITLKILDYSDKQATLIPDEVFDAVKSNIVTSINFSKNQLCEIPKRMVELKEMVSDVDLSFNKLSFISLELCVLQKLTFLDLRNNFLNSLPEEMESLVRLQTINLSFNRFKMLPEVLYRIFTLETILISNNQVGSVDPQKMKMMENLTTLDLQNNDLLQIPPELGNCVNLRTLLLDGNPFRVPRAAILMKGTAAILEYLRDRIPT

compound: CN(C)CC(=O)Nc1ccc2[nH]c(=O)c3ccccc3c2c1; test: log2 fold change, soluble protein after heating vs DMSO (PISA); higher = thermal stabilisation; K562 cells, 10 uM, 30 min; active = over 0.2 and 3.5 SD of the protein, either way, in both replicates (recomputed)
Method in brief: (§1)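 Values are thermal stability changes relative to control samples and are taken from duplicates. They are stated as log2 fold changes. Before quantification by TMTpro 16plex LC-MS/MS with equalised channel sums, K562 cells at 2×10^6 cells/mL were treated with 10 μM compound for 30 min, heated in aliquots for 3 min across 48°C-58°C, pooled, extracted in PBS with 0.5% NP-40 at 4°C, and centrifuged at 21,000xg for 90 min to give the soluble supernatant.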

log2 fold change, inactive:
LARS (UniProt Q9P2J5) 0.008, KYAT3 (UniProt Q6YP21) -0.013, LAMTOR1 (UniProt Q6IAA8) 0.06, LHPP (UniProt Q9H008) 0.017, LAP3 (UniProt P28838) 0.021, LANCL1 (UniProt O43813) -0.021, LASP1 (UniProt Q14847) -0.014, LRRC47 (UniProt Q8N1G4) 0.009, L3HYPDH (UniProt Q96EM0) 0.016, LRRC57 (UniProt Q8N9N7) 0.006, LIMS1 isoform 3 (UniProt P48059) -0.026, LARS2 (UniProt Q15031) 0, LLPH (UniProt Q9BRT6) -0.238, LACTB2 (UniProt Q53H82) -0.026, LCMT1 (UniProt Q9UIC8) 0.005, LDB1 (UniProt Q86U70) -0.012, LENG1 (UniProt Q96BZ8) -0.048, LIG1 (UniProt P18858) 0.142, LETM1 (UniProt O95202) 0.021, LDHB (UniProt P07195) -0.02, LMAN2L isoform 2 (UniProt Q9H0V9) 0.008, LPCAT1 (UniProt Q8NF37) 0.057, LRRC20 (UniProt Q8TCA0) 0.108, LCLAT1 (UniProt Q6UWP7) 0.005, LAMTOR2 (UniProt Q9Y2Q5) 0.029, LONP1 (UniProt P36776) -0.011, LIN28B (UniProt Q6ZN17) -0.066, LMAN2 (UniProt Q12907) -0.01, LANCL2 (UniProt Q9NS86) -0.02, LCP1 (UniProt P13796) -0.018, LIMK2 isoform 3 (UniProt P53671) -0.119, LRRC40 (UniProt Q9H9A6) 0.097

compound: CN(CCOC1=CC=C(C=C1)C[C@H]2C(=O)NC(=O)S2)C3=CC=CC=N3 (racemic) [rosiglitazone]; test: as above
Method in brief: as §1

log2 fold change, inactive:
LARS (UniProt Q9P2J5) -0.062, KYAT3 (UniProt Q6YP21) -0.006, LAMTOR1 (UniProt Q6IAA8) 0.001, LHPP (UniProt Q9H008) 0.029, LAP3 (UniProt P28838) 0.015, LANCL1 (UniProt O43813) -0.018, LASP1 (UniProt Q14847) 0.004, LRRC47 (UniProt Q8N1G4) 0.02, L3HYPDH (UniProt Q96EM0) 0.032, LRRC57 (UniProt Q8N9N7) 0.045, LIMS1 isoform 3 (UniProt P48059) -0.002, LARS2 (UniProt Q15031) 0.008, LLPH (UniProt Q9BRT6) -0.199, LACTB2 (UniProt Q53H82) 0.01, LCMT1 (UniProt Q9UIC8) 0.033, LDB1 (UniProt Q86U70) 0.02, LENG1 (UniProt Q96BZ8) 0.023, LIG1 (UniProt P18858) 0.016, LETM1 (UniProt O95202) 0.024, LDHB (UniProt P07195) 0.007, LMAN2L isoform 2 (UniProt Q9H0V9) 0.005, LPCAT1 (UniProt Q8NF37) 0.008, LRRC20 (UniProt Q8TCA0) 0.063, LCLAT1 (UniProt Q6UWP7) 0.011, LAMTOR2 (UniProt Q9Y2Q5) -0.026, LONP1 (UniProt P36776) 0.002, LIN28B (UniProt Q6ZN17) -0.063, LMAN2 (UniProt Q12907) 0.01, LANCL2 (UniProt Q9NS86) -0.012, LCP1 (UniProt P13796) 0.005, LIMK2 isoform 3 (UniProt P53671) 0.041, LRRC40 (UniProt Q9H9A6) 0.053

compound: CN1C2=C(C3=C1C(=O)N(N=C3)CC4=CC(=CC=C4)N)SC(=C2)S(=O)C; test: as above
Method in brief: as §1

log2 fold change, inactive:
LARS (UniProt Q9P2J5) 0.266, KYAT3 (UniProt Q6YP21) -0.025, LAMTOR1 (UniProt Q6IAA8) 0.023, LHPP (UniProt Q9H008) -0.01, LAP3 (UniProt P28838) -0.053, LANCL1 (UniProt O43813) -0.043, LASP1 (UniProt Q14847) -0.025, LRRC47 (UniProt Q8N1G4) -0.079, L3HYPDH (UniProt Q96EM0) -0.113, LRRC57 (UniProt Q8N9N7) -0.088, LIMS1 isoform 3 (UniProt P48059) -0.042, LARS2 (UniProt Q15031) -0.054, LLPH (UniProt Q9BRT6) 0.467, LACTB2 (UniProt Q53H82) 0.008, LCMT1 (UniProt Q9UIC8) -0.05, LDB1 (UniProt Q86U70) 0.011, LENG1 (UniProt Q96BZ8) -0.02, LIG1 (UniProt P18858) -0.059, LETM1 (UniProt O95202) -0.065, LDHB (UniProt P07195) -0.061, LMAN2L isoform 2 (UniProt Q9H0V9) 0.042, LPCAT1 (UniProt Q8NF37) -0.004, LRRC20 (UniProt Q8TCA0) -0.086, LCLAT1 (UniProt Q6UWP7) -0.017, LAMTOR2 (UniProt Q9Y2Q5) 0.016, LONP1 (UniProt P36776) -0.036, LIN28B (UniProt Q6ZN17) 0.135, LMAN2 (UniProt Q12907) -0.006, LANCL2 (UniProt Q9NS86) -0.045, LCP1 (UniProt P13796) -0.025, LIMK2 isoform 3 (UniProt P53671) -0.039, LRRC40 (UniProt Q9H9A6) 0.047
